The target in test [1] is T1, BAG5 (UniProt Q9UL15).
T1 sequence: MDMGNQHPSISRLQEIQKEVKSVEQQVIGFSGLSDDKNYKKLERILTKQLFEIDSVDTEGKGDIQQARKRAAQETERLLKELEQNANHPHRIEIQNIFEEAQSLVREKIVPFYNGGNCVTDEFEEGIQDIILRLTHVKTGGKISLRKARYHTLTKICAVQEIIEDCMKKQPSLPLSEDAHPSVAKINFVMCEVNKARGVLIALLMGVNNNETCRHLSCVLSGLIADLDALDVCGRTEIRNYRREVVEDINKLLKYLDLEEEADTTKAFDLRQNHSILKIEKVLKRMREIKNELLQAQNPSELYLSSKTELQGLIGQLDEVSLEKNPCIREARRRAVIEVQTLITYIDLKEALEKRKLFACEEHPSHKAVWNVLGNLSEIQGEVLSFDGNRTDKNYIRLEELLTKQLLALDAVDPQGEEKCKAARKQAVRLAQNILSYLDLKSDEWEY
In words: affinity purification with mass spectrometry; BAG5 immunocomplex on anti-Flag magnetic beads from NP-40 lysates (50 mM Tris-HCl pH 7.4, 150 mM NaCl) of A549 (and BEAS-2B) cells, overnight at 4 °C, four washes; SDS-PAGE and LC-MS/MS.

Chains of the proteins cited; added tags and fusions are not shown.
UniProt Q9Y6M1: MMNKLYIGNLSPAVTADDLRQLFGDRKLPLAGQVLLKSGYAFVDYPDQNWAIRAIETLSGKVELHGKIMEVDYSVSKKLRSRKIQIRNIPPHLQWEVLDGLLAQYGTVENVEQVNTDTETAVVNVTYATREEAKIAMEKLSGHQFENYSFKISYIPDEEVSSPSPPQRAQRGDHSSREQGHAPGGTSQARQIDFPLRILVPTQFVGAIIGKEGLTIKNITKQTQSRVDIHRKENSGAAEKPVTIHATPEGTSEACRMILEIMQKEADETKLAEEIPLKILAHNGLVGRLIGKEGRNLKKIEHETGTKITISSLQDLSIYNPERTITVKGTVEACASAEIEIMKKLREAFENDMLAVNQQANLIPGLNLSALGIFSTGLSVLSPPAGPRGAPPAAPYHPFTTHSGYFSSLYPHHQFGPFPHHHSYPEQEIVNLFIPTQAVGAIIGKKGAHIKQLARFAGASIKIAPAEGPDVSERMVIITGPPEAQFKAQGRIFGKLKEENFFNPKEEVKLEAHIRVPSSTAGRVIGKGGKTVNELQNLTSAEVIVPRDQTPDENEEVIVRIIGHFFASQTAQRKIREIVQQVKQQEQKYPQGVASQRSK
UniProt O00425: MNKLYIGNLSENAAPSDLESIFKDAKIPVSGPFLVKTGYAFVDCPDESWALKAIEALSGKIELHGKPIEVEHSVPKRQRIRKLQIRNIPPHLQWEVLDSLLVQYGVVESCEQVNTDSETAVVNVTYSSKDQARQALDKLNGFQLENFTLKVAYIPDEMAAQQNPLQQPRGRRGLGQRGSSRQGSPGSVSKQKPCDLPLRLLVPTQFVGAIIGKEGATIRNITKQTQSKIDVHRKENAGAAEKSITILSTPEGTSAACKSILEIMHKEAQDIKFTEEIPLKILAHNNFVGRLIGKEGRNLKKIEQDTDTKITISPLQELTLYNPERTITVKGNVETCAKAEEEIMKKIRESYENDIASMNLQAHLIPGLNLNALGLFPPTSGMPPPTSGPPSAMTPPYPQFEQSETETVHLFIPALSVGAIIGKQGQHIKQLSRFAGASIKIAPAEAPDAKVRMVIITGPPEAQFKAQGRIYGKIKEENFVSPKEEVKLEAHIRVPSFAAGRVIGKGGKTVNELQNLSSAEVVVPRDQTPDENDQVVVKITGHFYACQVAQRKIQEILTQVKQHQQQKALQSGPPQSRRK

For test [2], the target named is T1, BAG5. Described as above. The source holds these as a separate data set.

Where two headings read alike, the source gives them in different places. No constants are given. Whether binding was seen depends on the method and setting. Binding seen in cells or lysates may run through a third protein. A yes stands for co-enrichment or nearness to the bait. Other partners may have been found. For part of these data: No binding means not detected with the bait.

Take IGF2BP2 (from UniProt Q9Y6M1 1-599): the binding entry in the test with BAG5 [1] is listed as “binds”.

In the case of IGF2BP3 (from UniProt O00425 1-579), in the test with BAG5 [1], the binding entry is on record as “binds”.

B1: GLUT3 (protein, UniProt P11169 1-496)
chain: MGTQKVTPALIFAITVATIGSFQFGYNTGVINAPEKIIKEFINKTLTDKGNAPPSEVLLTSLWSLSVAIFSVGGMIGSFSVGLFVNRFGRRNSMLIVNLLAVTGGCFMGLCKVAKSVEMLILGRLVIGLFCGLCTGFVPMYIGEISPTALRGAFGTLNQLGIVVGILVAQIFGLEFILGSEELWPLLLGFTILPAILQSAALPFCPESPRFLLINRKEEENAKQILQRLWGTQDVSQDIQEMKDESARMSQEKQVTVLELFRVSSYRQPIIISIVLQLSQQLSGINAVFYYSTGIFKDAGVQEPIYATIGAGVVNTIFTVVSLFLVERAGRRTLHMIGLGGMAFCSTLMTVSLLLKDNYNGMSFVCIGAILVFVAFFEIGPGPIPWFIVAELFSQGPRPAAMAVAGCSNWTSNFLVGLLFPSAAHYLGAYVFIIFTGFLITFLAFTFFKVPETRGRTFEDITRAFEGQAHGADRSGKDGVMEMNSIEPAKETTTNV
Consider B1, for which, in the test with BAG5 [2], the binding entry was “no binding”.

For the origin of these results see publication PMC12331601.
